# In the supplement of paper PMC6411743:
# The chains behind the UniProt entries cited, without tags or fusion partners. Where a name states a change or a piece, a line headed by the entry shows the natural chain unless it says otherwise.
# UniProt Q8N488: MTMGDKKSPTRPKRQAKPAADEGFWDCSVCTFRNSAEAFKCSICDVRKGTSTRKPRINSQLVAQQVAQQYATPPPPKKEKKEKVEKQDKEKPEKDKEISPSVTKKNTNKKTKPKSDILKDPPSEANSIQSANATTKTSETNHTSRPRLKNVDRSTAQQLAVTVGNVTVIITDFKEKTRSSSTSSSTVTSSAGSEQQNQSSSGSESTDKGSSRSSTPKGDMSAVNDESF
# UniProt Q8N3X1: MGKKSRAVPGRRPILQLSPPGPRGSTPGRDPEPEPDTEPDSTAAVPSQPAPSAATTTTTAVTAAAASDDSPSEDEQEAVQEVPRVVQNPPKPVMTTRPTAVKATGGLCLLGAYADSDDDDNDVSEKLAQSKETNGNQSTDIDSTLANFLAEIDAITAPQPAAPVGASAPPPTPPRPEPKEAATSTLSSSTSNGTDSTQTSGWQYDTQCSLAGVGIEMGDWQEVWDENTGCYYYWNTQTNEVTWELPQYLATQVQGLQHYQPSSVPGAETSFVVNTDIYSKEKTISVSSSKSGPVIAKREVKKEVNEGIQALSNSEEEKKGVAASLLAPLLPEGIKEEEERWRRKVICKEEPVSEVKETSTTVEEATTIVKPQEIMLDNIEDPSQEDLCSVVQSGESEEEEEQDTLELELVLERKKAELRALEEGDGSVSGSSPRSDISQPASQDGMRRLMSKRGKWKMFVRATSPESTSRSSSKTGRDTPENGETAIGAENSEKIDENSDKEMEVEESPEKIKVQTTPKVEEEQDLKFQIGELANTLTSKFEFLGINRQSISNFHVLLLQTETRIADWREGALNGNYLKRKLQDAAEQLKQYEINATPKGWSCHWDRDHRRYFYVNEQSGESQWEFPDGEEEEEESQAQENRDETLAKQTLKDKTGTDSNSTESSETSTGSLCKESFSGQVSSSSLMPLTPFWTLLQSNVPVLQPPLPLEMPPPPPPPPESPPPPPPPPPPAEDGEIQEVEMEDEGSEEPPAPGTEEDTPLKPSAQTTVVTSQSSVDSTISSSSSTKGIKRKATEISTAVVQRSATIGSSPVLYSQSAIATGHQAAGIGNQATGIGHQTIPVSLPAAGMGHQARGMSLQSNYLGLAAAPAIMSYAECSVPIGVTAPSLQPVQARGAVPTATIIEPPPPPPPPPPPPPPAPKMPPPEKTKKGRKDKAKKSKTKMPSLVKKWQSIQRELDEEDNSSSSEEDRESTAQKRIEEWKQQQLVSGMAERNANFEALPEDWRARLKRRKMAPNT
# UniProt Q8NBN3: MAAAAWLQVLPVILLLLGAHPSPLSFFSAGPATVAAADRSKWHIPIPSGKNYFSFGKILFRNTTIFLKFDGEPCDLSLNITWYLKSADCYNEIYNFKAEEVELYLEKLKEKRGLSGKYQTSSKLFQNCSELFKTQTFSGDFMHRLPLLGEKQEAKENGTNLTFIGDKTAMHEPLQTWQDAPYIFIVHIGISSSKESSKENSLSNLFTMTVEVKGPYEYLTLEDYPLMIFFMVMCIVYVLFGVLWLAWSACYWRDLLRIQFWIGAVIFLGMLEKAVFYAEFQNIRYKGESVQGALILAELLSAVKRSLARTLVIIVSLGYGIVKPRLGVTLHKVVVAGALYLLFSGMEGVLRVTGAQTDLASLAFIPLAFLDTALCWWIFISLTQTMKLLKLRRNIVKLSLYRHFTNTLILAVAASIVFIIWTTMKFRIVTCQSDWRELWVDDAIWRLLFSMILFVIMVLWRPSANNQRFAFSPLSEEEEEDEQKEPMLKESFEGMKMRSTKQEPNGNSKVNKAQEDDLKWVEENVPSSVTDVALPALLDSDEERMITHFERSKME
# UniProt Q8N6S5: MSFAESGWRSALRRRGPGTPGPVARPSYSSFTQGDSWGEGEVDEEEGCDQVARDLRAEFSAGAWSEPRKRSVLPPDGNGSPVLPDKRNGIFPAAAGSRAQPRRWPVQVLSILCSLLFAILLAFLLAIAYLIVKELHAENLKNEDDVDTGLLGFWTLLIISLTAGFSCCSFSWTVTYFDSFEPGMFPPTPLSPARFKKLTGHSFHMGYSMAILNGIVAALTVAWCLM
# UniProt Q8IY63: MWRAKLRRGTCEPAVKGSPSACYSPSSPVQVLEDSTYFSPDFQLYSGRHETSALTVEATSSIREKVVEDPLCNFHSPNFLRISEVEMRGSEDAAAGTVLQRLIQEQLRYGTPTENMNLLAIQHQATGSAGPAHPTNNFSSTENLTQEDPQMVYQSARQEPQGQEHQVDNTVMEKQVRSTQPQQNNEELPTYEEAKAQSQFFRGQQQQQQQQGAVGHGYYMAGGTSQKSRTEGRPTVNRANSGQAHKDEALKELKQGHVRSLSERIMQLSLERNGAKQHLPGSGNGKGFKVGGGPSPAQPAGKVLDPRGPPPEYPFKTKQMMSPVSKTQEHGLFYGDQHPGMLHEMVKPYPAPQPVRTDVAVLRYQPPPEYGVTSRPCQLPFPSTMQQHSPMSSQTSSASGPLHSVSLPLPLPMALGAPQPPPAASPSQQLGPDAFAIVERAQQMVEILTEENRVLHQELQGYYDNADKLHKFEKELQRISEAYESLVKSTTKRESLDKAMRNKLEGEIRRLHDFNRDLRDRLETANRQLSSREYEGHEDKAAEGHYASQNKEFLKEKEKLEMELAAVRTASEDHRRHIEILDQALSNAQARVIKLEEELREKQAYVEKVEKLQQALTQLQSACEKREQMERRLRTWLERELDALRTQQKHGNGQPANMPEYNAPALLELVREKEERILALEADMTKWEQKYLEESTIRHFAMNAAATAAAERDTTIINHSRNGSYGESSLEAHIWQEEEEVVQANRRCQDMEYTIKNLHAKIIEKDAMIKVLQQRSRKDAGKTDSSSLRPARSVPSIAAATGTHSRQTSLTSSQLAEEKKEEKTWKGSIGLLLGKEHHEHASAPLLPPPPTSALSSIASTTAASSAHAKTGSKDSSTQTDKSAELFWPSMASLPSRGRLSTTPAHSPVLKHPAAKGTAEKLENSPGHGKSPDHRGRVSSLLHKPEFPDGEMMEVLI
# UniProt Q8IZ07: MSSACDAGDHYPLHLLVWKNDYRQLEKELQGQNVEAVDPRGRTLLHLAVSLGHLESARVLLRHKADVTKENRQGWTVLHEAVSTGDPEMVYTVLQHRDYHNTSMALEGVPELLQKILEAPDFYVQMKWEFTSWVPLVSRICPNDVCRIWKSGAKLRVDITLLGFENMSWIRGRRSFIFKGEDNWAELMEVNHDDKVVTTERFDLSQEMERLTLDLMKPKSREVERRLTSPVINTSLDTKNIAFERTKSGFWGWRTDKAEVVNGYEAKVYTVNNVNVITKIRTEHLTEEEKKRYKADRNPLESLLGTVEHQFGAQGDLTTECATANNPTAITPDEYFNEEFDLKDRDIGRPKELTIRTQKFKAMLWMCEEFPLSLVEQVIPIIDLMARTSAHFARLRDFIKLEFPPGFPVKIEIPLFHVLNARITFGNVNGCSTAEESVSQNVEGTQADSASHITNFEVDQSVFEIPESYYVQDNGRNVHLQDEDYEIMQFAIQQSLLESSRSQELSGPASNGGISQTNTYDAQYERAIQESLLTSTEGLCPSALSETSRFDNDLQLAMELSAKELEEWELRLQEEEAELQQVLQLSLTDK
# UniProt Q8NHV4, whole entry: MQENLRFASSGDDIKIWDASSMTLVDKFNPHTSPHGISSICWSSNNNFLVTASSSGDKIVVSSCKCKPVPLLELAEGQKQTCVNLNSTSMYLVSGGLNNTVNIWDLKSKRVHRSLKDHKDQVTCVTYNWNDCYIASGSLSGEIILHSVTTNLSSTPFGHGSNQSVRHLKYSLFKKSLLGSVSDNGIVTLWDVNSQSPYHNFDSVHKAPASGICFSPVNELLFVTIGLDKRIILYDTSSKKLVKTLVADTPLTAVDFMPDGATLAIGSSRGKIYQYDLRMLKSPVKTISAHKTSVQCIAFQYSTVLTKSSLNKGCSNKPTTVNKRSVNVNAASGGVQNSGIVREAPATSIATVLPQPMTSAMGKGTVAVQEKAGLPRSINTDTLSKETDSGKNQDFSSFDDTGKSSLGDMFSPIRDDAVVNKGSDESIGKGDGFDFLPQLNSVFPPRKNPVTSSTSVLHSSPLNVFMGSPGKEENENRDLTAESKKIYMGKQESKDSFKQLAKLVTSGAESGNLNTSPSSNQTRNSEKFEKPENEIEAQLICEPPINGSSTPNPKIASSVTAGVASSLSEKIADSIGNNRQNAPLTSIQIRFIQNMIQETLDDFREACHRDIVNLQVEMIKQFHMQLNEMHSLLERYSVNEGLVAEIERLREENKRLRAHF
# UniProt Q8IY95: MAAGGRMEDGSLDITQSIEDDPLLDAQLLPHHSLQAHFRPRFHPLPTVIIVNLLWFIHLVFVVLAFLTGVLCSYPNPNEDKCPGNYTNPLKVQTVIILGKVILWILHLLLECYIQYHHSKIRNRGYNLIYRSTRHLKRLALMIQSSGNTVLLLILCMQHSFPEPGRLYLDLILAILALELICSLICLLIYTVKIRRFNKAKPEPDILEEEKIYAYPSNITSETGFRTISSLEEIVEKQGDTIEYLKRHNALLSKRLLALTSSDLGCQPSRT
# UniProt Q8IWV8: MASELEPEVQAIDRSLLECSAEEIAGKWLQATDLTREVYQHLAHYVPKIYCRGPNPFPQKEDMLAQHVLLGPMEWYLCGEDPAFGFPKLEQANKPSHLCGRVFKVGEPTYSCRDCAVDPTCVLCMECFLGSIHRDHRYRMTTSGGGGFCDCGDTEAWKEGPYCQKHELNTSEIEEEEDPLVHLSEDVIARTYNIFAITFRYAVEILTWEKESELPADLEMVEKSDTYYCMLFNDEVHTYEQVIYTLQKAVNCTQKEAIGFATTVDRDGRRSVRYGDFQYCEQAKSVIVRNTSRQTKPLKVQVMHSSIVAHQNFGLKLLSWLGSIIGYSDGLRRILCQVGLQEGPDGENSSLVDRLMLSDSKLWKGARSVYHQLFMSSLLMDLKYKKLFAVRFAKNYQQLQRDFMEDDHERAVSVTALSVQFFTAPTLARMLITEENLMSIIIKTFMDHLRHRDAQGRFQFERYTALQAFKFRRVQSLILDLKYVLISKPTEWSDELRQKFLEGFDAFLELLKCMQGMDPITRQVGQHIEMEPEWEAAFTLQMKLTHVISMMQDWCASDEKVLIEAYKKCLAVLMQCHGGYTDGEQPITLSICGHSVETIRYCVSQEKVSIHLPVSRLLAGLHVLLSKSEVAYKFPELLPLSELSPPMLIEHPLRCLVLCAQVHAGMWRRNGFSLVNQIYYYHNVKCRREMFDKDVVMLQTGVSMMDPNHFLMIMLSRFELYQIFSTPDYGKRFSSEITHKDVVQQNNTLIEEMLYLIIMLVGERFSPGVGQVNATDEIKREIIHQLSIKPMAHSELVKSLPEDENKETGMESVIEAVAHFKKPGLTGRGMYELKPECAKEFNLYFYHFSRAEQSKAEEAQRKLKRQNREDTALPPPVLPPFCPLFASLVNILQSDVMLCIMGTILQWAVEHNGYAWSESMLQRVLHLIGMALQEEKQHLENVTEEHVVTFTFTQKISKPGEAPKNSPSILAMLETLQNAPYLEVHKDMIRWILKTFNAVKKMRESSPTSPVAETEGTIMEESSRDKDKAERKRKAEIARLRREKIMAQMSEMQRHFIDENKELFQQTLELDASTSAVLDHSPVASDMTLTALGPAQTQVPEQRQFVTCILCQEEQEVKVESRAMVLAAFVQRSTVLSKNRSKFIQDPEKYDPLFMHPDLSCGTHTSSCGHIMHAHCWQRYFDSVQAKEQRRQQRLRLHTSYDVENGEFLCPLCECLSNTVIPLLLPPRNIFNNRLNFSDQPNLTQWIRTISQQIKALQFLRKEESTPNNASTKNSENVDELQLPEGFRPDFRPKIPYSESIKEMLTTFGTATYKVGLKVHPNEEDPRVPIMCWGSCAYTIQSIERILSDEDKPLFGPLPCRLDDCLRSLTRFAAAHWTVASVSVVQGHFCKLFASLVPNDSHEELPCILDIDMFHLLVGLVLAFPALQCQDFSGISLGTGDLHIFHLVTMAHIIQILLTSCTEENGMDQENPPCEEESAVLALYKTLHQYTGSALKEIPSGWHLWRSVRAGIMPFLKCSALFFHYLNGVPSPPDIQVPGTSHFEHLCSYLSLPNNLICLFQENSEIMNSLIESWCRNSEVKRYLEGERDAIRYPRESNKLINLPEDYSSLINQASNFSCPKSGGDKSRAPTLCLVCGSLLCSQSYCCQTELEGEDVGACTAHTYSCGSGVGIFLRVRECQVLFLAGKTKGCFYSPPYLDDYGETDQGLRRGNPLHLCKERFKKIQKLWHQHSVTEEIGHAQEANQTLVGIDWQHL
# UniProt Q8NCW5: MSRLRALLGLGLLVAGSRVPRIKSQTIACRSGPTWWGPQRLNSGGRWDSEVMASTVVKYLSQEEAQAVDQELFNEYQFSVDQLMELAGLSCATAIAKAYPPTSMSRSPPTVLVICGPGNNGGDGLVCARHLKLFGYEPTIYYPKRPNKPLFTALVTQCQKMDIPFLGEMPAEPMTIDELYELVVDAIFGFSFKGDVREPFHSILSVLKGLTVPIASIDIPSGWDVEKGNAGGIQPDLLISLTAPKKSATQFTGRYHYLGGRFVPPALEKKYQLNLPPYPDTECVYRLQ
# ± gives the standard deviation of the averaged measurements. Some of the results follow.
# Compound: Nc1nc2c(ncn2[C@@H]2O[C@H](COP(=O)(O)OP(=O)(O)OP(=O)(O)O)[C@@H](O)[C@H]2O)c(=O)[nH]1 [guanosine triphosphate]
# Test: NP40-soluble protein abundance relative to vehicle (solubility fold change) (ratio); higher = more soluble protein in presence of GTP
# Settings: concentration: 2mM
# How it was run: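 Each value is a fold change relative to the detergent-processed vehicle, calculated per replicate from vsn-normalised intensities. Jurkat crude lysate received eight concentrations (0.1 to 10 mM) for 10 min at room temperature and 3 min at 37 °C, then was solubilised in 0.8% NP40 with benzonase (60 min, 4 °C). The ultracentrifuged supernatant was TMT-labelled and run by LC-MS/MS in three independent experiments.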
row,Target,NP40-soluble protein abundance
1,RYBP (UniProt Q8N488),0.952 ± 0.16
2,UniProt Q8N3X1 and related entries,1.27 ± 0.017
3,UniProt Q8NBN3 and related entries,0.911 ± 0.13
4,ARL6IP6 (UniProt Q8N6S5),0.998 ± 0.095
5,UniProt Q8IY63 and related entries,1.09 ± 0.1
6,ANKRD13A (UniProt Q8IZ07),0.995 ± 0.013
7,UniProt Q8NHV4 and related entries,1.07 ± 0.028
8,UniProt Q8IY95 and related entries,0.955 ± 0.083
9,UniProt Q8IWV8 and related entries,1.04 ± 0.11
10,UniProt Q8NCW5,0.986 ± 0.055

# Same assay, conditions: concentration: 4mM
row,Target,NP40-soluble protein abundance
1,UniProt Q86Y56,0.961 ± 0.078
2,UniProt Q86X53 and related entries,1 ± 0.049
3,UniProt Q8ND04 and related entries,1.09 ± 0.055
4,GALNT12 (UniProt Q8IXK2),0.976 ± 0.06
5,UniProt Q8TDZ2 and related entries,0.9237 ± 0.0088
6,UniProt Q8N122 and related entries,1.02 ± 0.096
7,UniProt Q8N5U6 and related entries,1.08 ± 0.14
8,UniProt Q8TCT9 and related entries,0.891 ± 0.011
9,UniProt Q8N766 and related entries,0.951 ± 0.098
10,UniProt Q8TD16 and related entries,0.952 ± 0.049
11,UniProt Q8NFI3 and related entries,0.985 ± 0.11
12,TTC5 (UniProt Q8N0Z6),0.946 ± 0.047
13,NDUFAF2 (UniProt Q8N183),0.911 ± 0.043
14,UniProt Q8TEX9 and related entries,0.949 ± 0.026
15,DCUN1D3 (UniProt Q8IWE4),0.937 ± 0.11
16,UniProt Q8NHU6 and related entries,1.04 ± 0.047
17,UniProt Q8IXI2 and related entries,1.03 ± 0.044
18,FTSJ3 (UniProt Q8IY81),1.08 ± 0.039

row,Target,NP40-soluble protein abundance
1,PNPT1 (UniProt Q8TCS8),1 ± 0.06
2,ZADH2 (UniProt Q8N4Q0),0.932 ± 0.041
3,UniProt Q86YP4 and related entries,1.15 ± 0.1
4,NUP43 (UniProt Q8NFH3),1.08 ± 0.058
5,RAB43 (UniProt Q86YS6),0.913 ± 0.031
6,UniProt Q8IUX7,1.095 ± 0.002
7,INTS1 (UniProt Q8N201),1.36 ± 0.27
8,CISD2 (UniProt Q8N5K1),0.931 ± 0.097
9,RYBP (UniProt Q8N488),0.937 ± 0.13
10,UniProt Q8N3X1 and related entries,1.39 ± 0.024
11,UniProt Q8NBN3 and related entries,0.893 ± 0.12
12,ARL6IP6 (UniProt Q8N6S5),0.991 ± 0.11
13,UniProt Q8IY63 and related entries,1.11 ± 0.062
14,ANKRD13A (UniProt Q8IZ07),0.9383 ± 0.0085
15,UniProt Q8NHV4 and related entries,1.01 ± 0.072
16,UniProt Q8IY95 and related entries,0.916 ± 0.063
17,UniProt Q8IWV8 and related entries,1.02 ± 0.076
18,UniProt Q8NCW5,0.967 ± 0.085

# Same assay, conditions: concentration: 6mM
row,Target,NP40-soluble protein abundance
1,UniProt Q86Y56,0.959 ± 0.065
2,UniProt Q86X53 and related entries,1 ± 0.12
3,UniProt Q8ND04 and related entries,1.09 ± 0.099
4,GALNT12 (UniProt Q8IXK2),0.938 ± 0.063
5,UniProt Q8TDZ2 and related entries,0.899 ± 0.019
6,UniProt Q8N122 and related entries,1.03 ± 0.09
7,UniProt Q8N5U6 and related entries,1.08 ± 0.071
8,UniProt Q8TCT9 and related entries,0.874 ± 0.016
9,UniProt Q8N766 and related entries,0.926 ± 0.093
10,UniProt Q8TD16 and related entries,0.938 ± 0.059
11,UniProt Q8NFI3 and related entries,0.944 ± 0.087
12,TTC5 (UniProt Q8N0Z6),0.979 ± 0.075
13,NDUFAF2 (UniProt Q8N183),0.945 ± 0.075
14,UniProt Q8TEX9 and related entries,0.941 ± 0.05
15,DCUN1D3 (UniProt Q8IWE4),0.95 ± 0.1
16,UniProt Q8NHU6 and related entries,1.09 ± 0.094
17,UniProt Q8IXI2 and related entries,0.911 ± 0.075
18,FTSJ3 (UniProt Q8IY81),1.12 ± 0.052

row,Target,NP40-soluble protein abundance
1,PNPT1 (UniProt Q8TCS8),0.969 ± 0.038
2,ZADH2 (UniProt Q8N4Q0),0.9 ± 0.041
3,UniProt Q86YP4 and related entries,1.16 ± 0.075
4,NUP43 (UniProt Q8NFH3),1.11 ± 0.027
5,RAB43 (UniProt Q86YS6),0.894 ± 0.039
6,UniProt Q8IUX7,1.11 ± 0.12
7,INTS1 (UniProt Q8N201),1.34 ± 0.3
8,CISD2 (UniProt Q8N5K1),0.926 ± 0.064
9,RYBP (UniProt Q8N488),0.948 ± 0.14
10,UniProt Q8N3X1 and related entries,1.64 ± 0.031
11,UniProt Q8NBN3 and related entries,0.872 ± 0.097
12,ARL6IP6 (UniProt Q8N6S5),0.979 ± 0.065
13,UniProt Q8IY63 and related entries,1.25 ± 0.06
14,ANKRD13A (UniProt Q8IZ07),0.9728 ± 0.0033
15,UniProt Q8NHV4 and related entries,1.1 ± 0.017
16,UniProt Q8IY95 and related entries,0.931 ± 0.061
17,UniProt Q8IWV8 and related entries,1.04 ± 0.097
18,UniProt Q8NCW5,0.932 ± 0.08
